# Reference: PubChem BioAssay AID2685 (National Center for Advancing Translational Sciences (NCATS), 2010)
# This is one part of the list. Further columns of the screen follow, without active or inactive calls. The list favours compounds with an active or inconclusive main result. The note in brackets gives the kind of curve behind each potency; many fits are weak.
# Test: qHTS Assay for Lipid Storage Modulators in Drosophila S3 Cells;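 as to cell number change: cells counted by Cell Tracker Red CMTPX staining in the red channel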
# Conditions: BODIPY lipid droplet fluorescence, 18-24 h; for cell number change: measured here: cell count max response, cells fed with added oleic acid
# Summary of the method: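 Drosophila S3 cells got compounds at several concentrations plus oleic acid (400 uM solution). Laser-scanning cytometry with 488 nm excitation read lipid droplets at 500-530 nm and cells at 575-640 nm. Percent activity was relative to 20 uM Triacsin C.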
# [1] = measured here: lipid fluorescence (Fed channel) AC50, cells fed with added oleic acid
# [2] = measured here: cell number channel AC50, cells fed with added oleic acid
Structure (SMILES),cell number change,AC50 [1],AC50 [2]
CCCCN(CCCC)S(=O)(=O)c1ccc2oc(C(=O)N3CCOCC3)c(C)c2c1,-17.2%,"18.4 µM [falling, single point]",–
Cn1nc(CC(=O)NCCN2C(=O)CSC2=O)c2ccccc2c1=O,9.34%,–,"0.146 µM [falling, single point]"
Cc1ccc(C(NC(=O)c2ccccc2)C(Cl)Cl)cc1 (stereo not drawn),4.76%,–,–
COc1cc(C(=S)N2CCOCC2)cc(OC)c1OC(=O)c1ccc([N+](=O)[O-])cc1[N+](=O)[O-],-12.3%,"6.51 µM [falling, single point]",–
CCCCN(C(=O)C(C)Oc1ccc(Br)cc1)c1c(N)n(CC(C)C)c(=O)[nH]c1=O (stereo not drawn),12.4%,"0.411 µM [rising, single point]",–
CC(C)(C)NC(=O)NC(=O)COc1ccccn1,-8.19%,"23.1 µM [falling, partial curve]",–
CCOC(=O)C1=C(c2ccccc2)Nc2ncnn2C1c1cc(OC)ccc1OC (stereo not drawn),–,"1.84 µM [rising, partial curve]","2.31 µM [rising, partial curve]"
C/C(CC(=O)Nc1cc(C)ccn1)=N\NC(=O)c1ccc(C(C)(C)C)cc1,17.3%,"18.4 µM [rising, single point]",–
CC(=O)c1ccc(N2CCN(C(=O)CCN3C(=S)NC(C)(C)CC3C)CC2)cc1 (stereo not drawn),–,"0.0291 µM [rising, partial curve, poor fit]",–
Cc1c(NS(=O)(=O)c2cc(C(=O)NC(C)c3ccccc3)ccc2Cl)c(=O)n(-c2ccccc2)n1C (stereo not drawn),252%,"4.11 µM [falling, single point]","29.1 µM [rising, single point]"
CSc1n[nH]c(N)c1S(=O)(=O)c1ccc(Cl)cc1,-22.2%,–,"0.411 µM [falling, full curve, poor fit]"
COC(=O)c1ccc(Cl)c(NC(=O)CN(c2ccc3c(c2)OCO3)S(C)(=O)=O)c1,–,–,"0.92 µM [rising, partial curve]"
CCOC(=O)c1nn(-c2ccccc2)c(=O)cc1SC(C)CC (stereo not drawn),10.6%,–,"0.0326 µM [rising, partial curve, poor fit]"
OCCNCc1cc(Br)ccc1OCc1ccc(Cl)cc1,-12%,"29.1 µM [falling, single point]",–
Nc1nonc1C(=O)NCCNC(=O)c1cccs1,-57.8%,"10.3 µM [falling, single point]","29.1 µM [falling, single point]"
CC1CC(=S)Nc2ccccc2N1C(=O)Nc1ccccc1 (stereo not drawn),12.3%,"7.31 µM [rising, partial curve, poor fit]",–
O=S1(=O)CCO[C@H]2Cc3ccccc3[C@H]2N1Cc1ccccc1Br,-2.91%,"0.092 µM [rising, full curve, poor fit]",–
CCOC(=O)c1c(C)[nH]c(C)c1C(=O)COC(=O)/C=C/c1ccc(OC(F)F)cc1,16.7%,"10.3 µM [rising, partial curve]","7.31 µM [rising, single point]"
O=C(NC12CC3CC(CC(C3)C1)C2)c1ccc(=O)oc1,6.33%,"0.651 µM [rising, full curve, poor fit]",–

# Full records from above. Order of values: cell number change | AC50 [1] | AC50 [2]
# Cn1nc(CC(=O)NCCN2C(=O)CSC2=O)c2ccccc2c1=O in the list: 9.34% | – | 0.146 µM [falling, single point]
# COC(=O)c1ccc(Cl)c(NC(=O)CN(c2ccc3c(c2)OCO3)S(C)(=O)=O)c1 in the list: – | – | 0.92 µM [rising, partial curve]
# CCOC(=O)c1nn(-c2ccccc2)c(=O)cc1SC(C)CC (stereo not drawn) in the list: 10.6% | – | 0.0326 µM [rising, partial curve, poor fit]

# (further entries)

Structure (SMILES),cell number change,AC50 [1],AC50 [2]
CC(Oc1ccc2ccc(=O)oc2c1)C(=O)NCCCn1ccnc1 (stereo not drawn),-6.49%,"29.1 µM [falling, single point]",–
CCCCn1c(N)c(N(CCC(C)C)C(=O)CC2OC(=O)c3ccccc32)c(=O)[nH]c1=O (stereo not drawn),0.5%,–,–
COc1ccc(C(C)NCCC(c2ccc(OC(C)C)cc2)c2ccccc2OC)cc1 (stereo not drawn),-9.01%,"29.1 µM [falling, single point]",–
CC(NS(=O)(=O)c1ccc2c(c1)CC(C)N2C(=O)C1CC1)c1ccccc1 (stereo not drawn),30.1%,"20.6 µM [rising, single point]","13 µM [rising, partial curve, poor fit]"
COc1ccc(OC(C)C(=O)N(C)Cc2nc(-c3cccc(C)c3)no2)cc1 (stereo not drawn),10.9%,"0.231 µM [rising, full curve, poor fit]",–
Cc1ccc(CN2CCN(C(=O)CCN3C(=O)c4ccccc4C3=O)CC2)cc1,30%,"29.1 µM [rising, single point]","25.9 µM [rising, single point]"
O=C(Nc1ccc(F)cc1)Nc1ccccc1C(=O)NCCN1CCNC1=O,-3.53%,–,–
CCc1ccc(NC(=O)CCC(=O)c2ccc(C)cc2)cc1,3.4%,"6.51 µM [rising, single point]",–
COc1ccc(NC2=CC(c3ccc(OC)c(OC)c3)N(c3ccc(OC)cc3)C2=O)cc1 (stereo not drawn),–,"14.6 µM [rising, single point]",–
CCOC(=O)Cc1nnc2c(Nc3ccc(C)cc3)nc3nonc3n12,–,"0.411 µM [rising, partial curve, poor fit]","0.58 µM [rising, single point]"
CCCc1cc(C(N)=O)c(NC(=O)c2ccco2)s1,–,"0.58 µM [rising, single point]",–
O=S(=O)(Nc1ccc(-c2ccc(N3CCOCC3)nn2)cc1)c1cc(Cl)ccc1Cl,-20.6%,"0.092 µM [rising, full curve, poor fit]",–
CCc1ccc(N=C2NC(=O)/C(=C/c3cc(OC)c(OC)c(OC)c3)S2)cc1,-39.2%,–,"20.6 µM [falling, single point]"
NC(=O)Cn1c(O)c(N=NC(=O)CNC(=O)/C=C/c2ccccc2)c2ccccc21,16.5%,"2.06 µM [rising, partial curve, poor fit]",–
Cc1cc(N2CCCC2)nc(-c2ccccc2O)n1,-22.9%,"10.3 µM [falling, partial curve, poor fit]","0.103 µM [falling, partial curve, poor fit]"
CN(CC(=O)Nc1ccc(F)c(F)c1F)C(=O)C1CCCC1,-32%,"29.1 µM [falling, single point]","29.1 µM [falling, single point]"
COc1cc(CN2CCN(CCOCCO)CC2)cc(OC)c1OC,-29.5%,"1.03 µM [falling, full curve]",–
Cc1ccc(N2C(N)=C(C#N)C(c3cccnc3)C3=C2CC(C)(C)CC3=O)cc1 (stereo not drawn),–,"0.103 µM [rising, full curve, poor fit]","0.0731 µM [rising, full curve, poor fit]"
CCOC(=O)c1nn(-c2ccc(F)cc2)c(=O)c2c(N)scc12,-18%,"2.31 µM [falling, partial curve, poor fit]",–

Structure (SMILES),cell number change,AC50 [1],AC50 [2]
Cc1ccc(C(=O)N/C(=C\c2ccco2)C(=O)N2CC(C)OC(C)C2)cc1C (stereo not drawn),-6.52%,"29.1 µM [rising, single point]",–
O=C(CSc1nc(O)cc(=O)n1-c1ccccc1)NCc1ccccc1,-55.8%,–,"11.6 µM [falling, partial curve, poor fit]"
CC(C)CNS(=O)(=O)c1ccc(S(=O)(=O)N2CCN(CCC#N)CC2)cc1,18.4%,"0.651 µM [falling, single point]",–
Nn1c(SCc2csc(-c3ccccc3)n2)nnc1-c1cccs1,–,–,"2.31 µM [rising, partial curve]"
COc1ccc(Oc2nc(-c3ccccc3)ncc2C(=O)O)cc1,-3.49%,"0.082 µM [falling, partial curve, poor fit]",–
COc1ccc(-c2cc(C(F)(F)F)nc(N3CCN(c4ccc(F)cc4)CC3)n2)cc1OC,-97.1%,"29.1 µM [falling, single point]","29.1 µM [falling, single point]"
COc1cc2c(cc1OC)CN(C(=O)c1ccc(S(=O)(=O)N3CCCCCC3)cc1)CC2,36.1%,–,"32.6 µM [rising, single point]"
CCOc1cc(C(=O)NCc2ccco2)cc(OCC)c1OCC,-0.351%,–,–
CCOC(=O)N1CCN(Cc2nc3cc(NC(C)=O)ccc3n2CC)CC1,-3.55%,–,"0.00461 µM [falling, full curve, poor fit]"
COc1ccc(N2Cc3ccccc3/C2=N\C(=O)Nc2ccccc2)cc1,69%,–,"29.1 µM [rising, single point]"
CN(C)S(=O)(=O)c1ccc(C(=O)OCc2ccc([N+](=O)[O-])cc2)cc1,-108%,–,–
CCN(CC)S(=O)(=O)c1ccc2c(c1)nc(CCC(=O)OCC(=O)Nc1cc(OC)cc(OC)c1)n2C,–,"1.46 µM [rising, partial curve]","0.82 µM [rising, full curve]"
CCc1ccc(-c2cc(C)no2)cc1S(=O)(=O)N1CCN(c2ccccn2)CC1,8.02%,–,"6.51 µM [rising, single point]"
CC(C)c1cc(C(=O)O)n(-c2ccccc2)n1,23.1%,"6.51 µM [falling, single point]",–
CC1=CC(C)(C)Nc2ccc(OC(=O)CN3C(=O)C4CCCCC4C3=O)cc21 (stereo not drawn),59.3%,"0.651 µM [falling, partial curve, poor fit]",–
CCn1c(COc2ccccc2)nnc1SCC(=O)Nc1ccc2c(c1)OCCO2,-75.5%,"6.51 µM [falling, partial curve]","13 µM [falling, partial curve]"
O=C(CSCc1ccc(Cl)cc1Cl)Nc1nccs1,2.72%,"2.91 µM [rising, partial curve]","2.06 µM [rising, partial curve]"
Cc1ccccc1CN1C[C@@H]2C[C@@H](c3cn(C)nc3-c3ccccc3)N3CCC[C@@]23C1=O,-37.6%,"32.6 µM [falling, single point]","29.1 µM [falling, single point]"
